From publication PMC5735978
These are yes or no findings as the source states them, for the method shown. Binding seen in cells or lysates may run through a third protein. These calls come from enrichment with a bait or labelling near it, and not all partners need be listed. For part of these data: No binding means not detected with the bait. For part of these data: Tags and fused reporters may be left off the sequences shown.

T1: 3xFlag-PAK6 K436M (UniProt Q9NQU5)
T1 sequence: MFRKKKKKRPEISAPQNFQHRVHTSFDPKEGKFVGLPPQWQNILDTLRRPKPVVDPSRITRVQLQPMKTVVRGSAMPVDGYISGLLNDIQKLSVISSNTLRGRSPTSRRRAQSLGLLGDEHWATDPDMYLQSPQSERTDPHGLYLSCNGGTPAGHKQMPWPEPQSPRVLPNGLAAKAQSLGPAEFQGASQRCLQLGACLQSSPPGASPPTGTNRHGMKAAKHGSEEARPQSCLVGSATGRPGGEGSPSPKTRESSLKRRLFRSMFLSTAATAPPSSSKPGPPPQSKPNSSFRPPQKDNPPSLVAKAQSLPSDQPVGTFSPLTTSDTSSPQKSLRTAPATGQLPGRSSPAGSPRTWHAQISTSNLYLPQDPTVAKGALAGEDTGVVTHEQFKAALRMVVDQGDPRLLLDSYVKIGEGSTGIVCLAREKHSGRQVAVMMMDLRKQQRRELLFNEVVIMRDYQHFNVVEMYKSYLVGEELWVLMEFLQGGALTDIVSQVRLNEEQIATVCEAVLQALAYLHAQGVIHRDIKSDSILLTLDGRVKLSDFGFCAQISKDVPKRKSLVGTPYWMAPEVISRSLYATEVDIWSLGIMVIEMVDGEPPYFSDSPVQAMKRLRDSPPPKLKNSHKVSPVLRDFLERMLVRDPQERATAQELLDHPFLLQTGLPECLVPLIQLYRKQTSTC

B1: 14-3-3 gamma (endogenous, HEK293T) (protein, UniProt P61981 1-247)
chain: MVDREQLVQKARLAEQAERYDDMAAAMKNVTELNEPLSNEERNLLSVAYKNVVGARRSSWRVISSIEQKTSADGNEKKIEMVRAYREKIEKELEAVCQDVLSLLDNYLIKNCSETQYESKVFYLKMKGDYYRYLAEVATGEKRATVVESSEKAYSEAHEISKEHMQPTHPIRLGLALNYSVFYYEIQNAPEQACHLAKTAFDDAIAELDTLNEDSYKDSTLIMQLLRDNLTLWTSDQQDDDGGEGNN
B2: 14-3-3 theta (endogenous, HEK293T) (protein, UniProt P27348 1-245)
chain: MEKTELIQKAKLAEQAERYDDMATCMKAVTEQGAELSNEERNLLSVAYKNVVGGRRSAWRVISSIEQKTDTSDKKLQLIKDYREKVESELRSICTTVLELLDKYLIANATNPESKVFYLKMKGDYFRYLAEVACGDDRKQTIDNSQGAYQEAFDISKKEMQPTHPIRLGLALNFSVFYYEILNNPELACTLAKTAFDEAIAELDTLNEDSYKDSTLIMQLLRDNLTLWTSDSAGEECDAAEGAEN
B3: 14-3-3 eta (endogenous, HEK293T) (protein, UniProt Q04917 1-246)
chain: MGDREQLLQRARLAEQAERYDDMASAMKAVTELNEPLSNEDRNLLSVAYKNVVGARRSSWRVISSIEQKTMADGNEKKLEKVKAYREKIEKELETVCNDVLSLLDKFLIKNCNDFQYESKVFYLKMKGDYYRYLAEVASGEKKNSVVEASEAAYKEAFEISKEQMQPTHPIRLGLALNFSVFYYEIQNAPEQACLLAKQAFDDAIAELDTLNEDSYKDSTLIMQLLRDNLTLWTSDQQDEEAGEGN

What follows are binders tested against 3xFlag-PAK6 S531N (UniProt Q9NQU5) (assay: affinity purification with mass spectrometry; 3xFlag-PAK6 variants immunoprecipitated from transfected HEK293T lysates with anti-Flag M2 agarose; SDS-PAGE, Coomassie staining; doublet around 25 kDa identified by LC-MS/MS).
In the case of B1, the binding is reported as “binds”. In the case of B2, the binding is reported as “binds”. In the case of B3, the binding is reported as “binds”.

These binders were tested against 3xFlag-PAK6 wild-type (UniProt Q9NQU5) in the same assay as above.
For B1, the binding was “binds”. In the case of B2, the binding is reported as “binds”. With B3 the binding was “binds”.

These binders were tested against T1, 3xFlag-PAK6 K436M in the same assay as above.
In the case of B1, the binding is reported as “no binding”. For B2, the binding was “no binding”. With B3 the binding was “no binding”.
